Reference: publication PMC6213497
Numbering of substitutions follows the chain as printed. These are yes or no findings as the source states them, for the method shown. Binding seen in cells or lysates may run through a third protein. Some entries that bind do so weakly or less than the wild type. Sequences can lack the tags named with a protein.

Protein sequences, listed by entry. Tags and fused reporters are not part of them. Residues count along the entry.
UniProt Q15465, residues 24-462: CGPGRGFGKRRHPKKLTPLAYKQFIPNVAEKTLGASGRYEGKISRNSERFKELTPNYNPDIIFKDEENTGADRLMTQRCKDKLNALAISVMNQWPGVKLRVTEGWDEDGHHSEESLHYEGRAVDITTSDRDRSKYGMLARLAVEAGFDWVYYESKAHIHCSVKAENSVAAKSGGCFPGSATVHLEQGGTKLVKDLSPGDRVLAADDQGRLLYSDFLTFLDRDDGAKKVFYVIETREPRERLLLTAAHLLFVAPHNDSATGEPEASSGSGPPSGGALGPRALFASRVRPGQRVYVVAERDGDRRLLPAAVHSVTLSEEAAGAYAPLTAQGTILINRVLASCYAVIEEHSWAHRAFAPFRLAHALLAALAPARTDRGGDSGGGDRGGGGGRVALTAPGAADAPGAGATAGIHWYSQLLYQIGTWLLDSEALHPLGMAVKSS

Legend:
[1] = biological target: T1, FLAG-HHIP wild-type (Hedgehog interacting protein) (human) (UniProt Q96QV1); assay: co-IP; 8505C cells co-transfected with SHH-HA and FLAG-HHIP-WT or FLAG-HHIP-G516R for 24 h; cleared cell extracts incubated with anti-FLAG antibody 12 h at 4 °C, protein A/G PLUS-Agarose overnight, washed three times with PBS; HA detected by western blot
T1 sequence: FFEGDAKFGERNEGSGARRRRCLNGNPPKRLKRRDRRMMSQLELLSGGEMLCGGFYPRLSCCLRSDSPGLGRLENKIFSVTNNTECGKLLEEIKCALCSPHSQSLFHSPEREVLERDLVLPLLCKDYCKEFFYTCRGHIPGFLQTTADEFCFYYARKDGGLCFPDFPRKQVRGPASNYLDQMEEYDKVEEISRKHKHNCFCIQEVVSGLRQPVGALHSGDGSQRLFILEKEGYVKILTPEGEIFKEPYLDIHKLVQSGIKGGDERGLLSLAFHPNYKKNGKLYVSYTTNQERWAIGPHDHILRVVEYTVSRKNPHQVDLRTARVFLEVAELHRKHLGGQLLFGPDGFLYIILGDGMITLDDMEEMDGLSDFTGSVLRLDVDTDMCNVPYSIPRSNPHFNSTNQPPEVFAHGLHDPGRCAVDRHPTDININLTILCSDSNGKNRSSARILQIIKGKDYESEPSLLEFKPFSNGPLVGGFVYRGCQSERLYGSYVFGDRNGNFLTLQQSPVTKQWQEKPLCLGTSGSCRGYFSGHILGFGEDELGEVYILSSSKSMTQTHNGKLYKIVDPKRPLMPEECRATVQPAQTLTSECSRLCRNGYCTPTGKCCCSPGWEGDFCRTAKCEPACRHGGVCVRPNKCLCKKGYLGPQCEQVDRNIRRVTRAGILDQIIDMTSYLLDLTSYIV

[2] = biological target: T2, FLAG-HHIP-G516R mutant (human) (UniProt Q96QV1); assay: as above
T2 sequence: T1 sequence with G499R

binding [1]: binds | binding [2]: binds
Substance: SHH-HA (Sonic Hedgehog) (from UniProt Q15465 24-462) (ligand)
